Results published in PMC8773529 (Cancers, 2022).

What was measured:
[1] = system: lipid metabolism proteins in RWPE-1 cells; assay: LC-MS proteome analysis, RWPE-1; format: cell-based, human; conditions: IC50 concentration
[2] = system: lipid metabolism proteins in PC3 cells; assay: LC-MS proteome analysis, PC3; format: cell-based, human; conditions: IC50 concentration

With `O=C(O)c1cn(C2CC2)c2cc(N3CCNCC3)c(F)cc2c1=O` [Ciprofloxacin] the “2,4-dienoyl-CoA reductase, mitochondrial (DECR) protein expression, RWPE-1” value ([1]; control = 100%) was 96.3 % of control, the “Acetyl-CoA acetyltransferase, mitochondrial (THIL/ACAT1) protein expression, RWPE-1” value ([1]; control = 100%) was 94.6 % of control and the “Acetyl-CoA carboxylase 2 (ACACB) protein expression, RWPE-1” value ([1]; control = 100%) was 89.3 % of control. For the same compound, the “Caveolin-1 (CAV1) protein expression, RWPE-1” value ([1]; control = 100%) was 92.5 % of control, the “Fatty acid synthase (FAS) protein expression, RWPE-1” value ([1]; control = 100%) was 94.5 % of control and the “NPC intracellular cholesterol transporter 2 (NPC2) protein expression, RWPE-1” value ([1]; control = 100%) was 91.2 % of control. For the same compound, the “Perilipin-3 (PLIN3) protein expression, RWPE-1” value ([1]; control = 100%) was 95.2 % of control, the “Phospholipid-transporting ATPase IA (AT8A1) protein expression, RWPE-1” value ([1]; control = 100%) was 121.2 % of control and the “ACACB protein intensity, RWPE-1” value ([1]; Table S1, 72 h, control 49340) was 44060.6. For the same compound, the “NPC2 protein intensity, RWPE-1” value ([1]; Table S1, 72 h, control 60306) was 54999.1, the “CAV1 protein intensity, RWPE-1” value ([1]; Table S1, 72 h, control 64740) was 59884.5 and the “AT8A1 protein intensity, RWPE-1” value ([1]; Table S1, 72 h, control 98750) was 119685. The “DECR protein intensity, RWPE-1” value ([1]; Table S1, 72 h, control 111503) was 107377.4, the “PLIN3 protein intensity, RWPE-1” value ([1]; Table S1, 72 h, control 631231) was 600932 and the “FAS protein intensity, RWPE-1” value ([1]; Table S1, 72 h, control 823421) was 778132.9. The “2,4-dienoyl-CoA reductase, mitochondrial (DECR) protein expression, PC3” value ([2]; control = 100%) was 82.7 % of control, the “Acetyl-CoA acetyltransferase, mitochondrial (THIL/ACAT1) protein expression, PC3” value ([2]; control = 100%) was 83.4 % of control and the “Acetyl-CoA carboxylase 2 (ACACB) protein expression, PC3” value ([2]; control = 100%) was 89.3 % of control. For the same compound, the “Caveolin-1 (CAV1) protein expression, PC3” value ([2]; control = 100%) was 89.2 % of control, the “Fatty acid synthase (FAS) protein expression, PC3” value ([2]; control = 100%) was 87.4 % of control and the “Fatty acid-binding protein 5 (FABP5) protein expression, PC3” value ([2]; control = 100%) was 92.4 % of control. The “NPC intracellular cholesterol transporter 2 (NPC2) protein expression, PC3” value ([2]; control = 100%) was 91.3 % of control, the “Perilipin-3 (PLIN3) protein expression, PC3” value ([2]; control = 100%) was 86.3 % of control and the “Phospholipid-transporting ATPase IA (AT8A1) protein expression, PC3” value ([2]; control = 100%) was 124.5 % of control. For the same compound, the “THIL protein intensity, PC3” value ([2]; Table S1, 72 h, control 79046) was 65924.4, the “NPC2 protein intensity, PC3” value ([2]; Table S1, 72 h, control 90108) was 82268.6 and the “AT8A1 protein intensity, PC3” value ([2]; Table S1, 72 h, control 115840) was 144220.8. The “DECR protein intensity, PC3” value ([2]; Table S1, 72 h, control 192442) was 159149.5, the “ACACB protein intensity, PC3” value ([2]; Table S1, 72 h, control 253760) was 226607.7 and the “CAV1 protein intensity, PC3” value ([2]; Table S1, 72 h, control 725820) was 647431.4. The “PLIN3 protein intensity, PC3” value ([2]; Table S1, 72 h, control 960327) was 828762.2, the “FAS protein intensity, PC3” value ([2]; Table S1, 72 h, control 1125936) was 984068.1 and the “FABP5 protein intensity, PC3” value ([2]; Table S1, 72 h, control 2099906) was 1940313.
